The results in this text go back to publication PMC3848765.

By UniProt entry, the sequences of proteins in these tests, tags left out.
UniProt P19525: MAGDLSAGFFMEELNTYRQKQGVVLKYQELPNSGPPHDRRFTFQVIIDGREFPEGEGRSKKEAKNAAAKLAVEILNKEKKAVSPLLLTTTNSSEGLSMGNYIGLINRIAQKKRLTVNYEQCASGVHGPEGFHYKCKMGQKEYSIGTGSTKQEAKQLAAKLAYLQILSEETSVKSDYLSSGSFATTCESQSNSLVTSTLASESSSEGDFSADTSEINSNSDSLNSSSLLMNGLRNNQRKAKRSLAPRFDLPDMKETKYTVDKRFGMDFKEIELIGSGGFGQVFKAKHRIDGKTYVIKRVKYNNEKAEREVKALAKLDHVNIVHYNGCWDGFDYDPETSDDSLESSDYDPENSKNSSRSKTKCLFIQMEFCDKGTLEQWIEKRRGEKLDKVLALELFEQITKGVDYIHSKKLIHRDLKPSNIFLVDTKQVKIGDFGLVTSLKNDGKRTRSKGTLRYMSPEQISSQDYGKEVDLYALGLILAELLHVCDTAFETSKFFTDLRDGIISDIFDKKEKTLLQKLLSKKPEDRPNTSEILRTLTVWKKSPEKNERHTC

In test [1] the target is Protein Kinase RNA-activated (PKR) (human (endogenous in Jurkat)) (UniProt P19525). In words: co-IP; Jurkat cells mock-infected or infected with HIV-1 pNL4-3, lysates at day 15 (peak of infection); IP with anti-PKR or anti-ADAR1; blots with anti-PKR, anti-ADAR1, anti-PACT.
The target in test [2] is T1, Flag-PACT (UniProt O75569).
T1 sequence: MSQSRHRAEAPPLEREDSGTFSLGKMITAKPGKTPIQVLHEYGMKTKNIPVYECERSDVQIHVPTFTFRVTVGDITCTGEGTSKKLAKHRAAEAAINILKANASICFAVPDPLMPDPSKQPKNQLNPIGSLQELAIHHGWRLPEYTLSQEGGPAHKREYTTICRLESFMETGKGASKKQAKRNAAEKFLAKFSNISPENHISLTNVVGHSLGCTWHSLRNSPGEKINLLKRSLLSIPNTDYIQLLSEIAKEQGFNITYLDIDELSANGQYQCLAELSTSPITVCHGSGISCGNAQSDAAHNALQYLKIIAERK
In words: co-IP; HEK 293T transfected with Flag-PACT or ADAR1 p150-V5; IP with anti-Flag or anti-V5 on protein G agarose, 2 mg protein, overnight 4°C; blot for endogenous ADAR1 or PACT; no nuclease.

Test [3] has as its target T1, Flag-PACT. In words: co-IP; as a2, but beads treated with 250 U/ml Benzonase in 50 mM Tris-HCl, 1 mM MgCl2, pH 8.0, 30 min 37°C (removal of RNAs).
For test [4], the target named is T2, Adenosine Deaminase Acting on RNA (ADAR)1 (human (endogenous in Jurkat)) (UniProt P55265).
T2 sequence: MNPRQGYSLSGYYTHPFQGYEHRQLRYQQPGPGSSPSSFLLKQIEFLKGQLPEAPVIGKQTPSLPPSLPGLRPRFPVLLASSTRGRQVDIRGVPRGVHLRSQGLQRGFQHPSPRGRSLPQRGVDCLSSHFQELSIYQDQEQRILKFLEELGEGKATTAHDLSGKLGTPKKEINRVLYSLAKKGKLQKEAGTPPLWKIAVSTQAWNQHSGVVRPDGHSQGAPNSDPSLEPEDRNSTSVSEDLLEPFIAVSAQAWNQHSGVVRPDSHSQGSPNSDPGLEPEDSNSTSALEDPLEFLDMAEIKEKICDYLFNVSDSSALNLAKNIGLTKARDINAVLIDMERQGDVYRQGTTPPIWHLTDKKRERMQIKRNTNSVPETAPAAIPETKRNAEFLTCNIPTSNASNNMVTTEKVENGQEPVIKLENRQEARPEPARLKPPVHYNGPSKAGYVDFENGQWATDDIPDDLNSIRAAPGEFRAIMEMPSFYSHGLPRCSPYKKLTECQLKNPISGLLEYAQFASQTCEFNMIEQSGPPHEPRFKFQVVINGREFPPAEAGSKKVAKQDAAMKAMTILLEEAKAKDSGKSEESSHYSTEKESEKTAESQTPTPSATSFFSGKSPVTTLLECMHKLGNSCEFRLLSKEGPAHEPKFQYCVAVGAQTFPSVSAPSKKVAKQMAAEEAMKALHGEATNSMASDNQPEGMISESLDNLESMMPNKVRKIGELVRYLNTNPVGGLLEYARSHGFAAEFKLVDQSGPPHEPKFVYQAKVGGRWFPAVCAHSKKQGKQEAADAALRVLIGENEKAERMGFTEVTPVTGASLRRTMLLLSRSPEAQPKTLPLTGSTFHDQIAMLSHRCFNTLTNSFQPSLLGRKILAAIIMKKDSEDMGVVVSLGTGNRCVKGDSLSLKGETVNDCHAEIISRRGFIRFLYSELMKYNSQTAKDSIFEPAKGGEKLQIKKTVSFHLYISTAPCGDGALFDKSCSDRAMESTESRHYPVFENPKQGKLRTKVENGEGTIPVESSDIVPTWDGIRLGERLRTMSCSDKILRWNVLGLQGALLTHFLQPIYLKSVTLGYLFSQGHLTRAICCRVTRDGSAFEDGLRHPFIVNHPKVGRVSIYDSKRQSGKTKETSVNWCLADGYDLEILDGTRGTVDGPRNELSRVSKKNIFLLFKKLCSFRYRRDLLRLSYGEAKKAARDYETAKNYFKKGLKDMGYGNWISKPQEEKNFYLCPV
In words: co-IP; Jurkat cells mock-infected or infected with HIV-1 pNL4-3, lysates at day 15 (peak of infection); IP with anti-PKR or anti-ADAR1; blots with anti-PKR, anti-ADAR1, anti-PACT.

A further test addresses T3, ADAR1 p150-V5 (UniProt P55265).
T3 sequence: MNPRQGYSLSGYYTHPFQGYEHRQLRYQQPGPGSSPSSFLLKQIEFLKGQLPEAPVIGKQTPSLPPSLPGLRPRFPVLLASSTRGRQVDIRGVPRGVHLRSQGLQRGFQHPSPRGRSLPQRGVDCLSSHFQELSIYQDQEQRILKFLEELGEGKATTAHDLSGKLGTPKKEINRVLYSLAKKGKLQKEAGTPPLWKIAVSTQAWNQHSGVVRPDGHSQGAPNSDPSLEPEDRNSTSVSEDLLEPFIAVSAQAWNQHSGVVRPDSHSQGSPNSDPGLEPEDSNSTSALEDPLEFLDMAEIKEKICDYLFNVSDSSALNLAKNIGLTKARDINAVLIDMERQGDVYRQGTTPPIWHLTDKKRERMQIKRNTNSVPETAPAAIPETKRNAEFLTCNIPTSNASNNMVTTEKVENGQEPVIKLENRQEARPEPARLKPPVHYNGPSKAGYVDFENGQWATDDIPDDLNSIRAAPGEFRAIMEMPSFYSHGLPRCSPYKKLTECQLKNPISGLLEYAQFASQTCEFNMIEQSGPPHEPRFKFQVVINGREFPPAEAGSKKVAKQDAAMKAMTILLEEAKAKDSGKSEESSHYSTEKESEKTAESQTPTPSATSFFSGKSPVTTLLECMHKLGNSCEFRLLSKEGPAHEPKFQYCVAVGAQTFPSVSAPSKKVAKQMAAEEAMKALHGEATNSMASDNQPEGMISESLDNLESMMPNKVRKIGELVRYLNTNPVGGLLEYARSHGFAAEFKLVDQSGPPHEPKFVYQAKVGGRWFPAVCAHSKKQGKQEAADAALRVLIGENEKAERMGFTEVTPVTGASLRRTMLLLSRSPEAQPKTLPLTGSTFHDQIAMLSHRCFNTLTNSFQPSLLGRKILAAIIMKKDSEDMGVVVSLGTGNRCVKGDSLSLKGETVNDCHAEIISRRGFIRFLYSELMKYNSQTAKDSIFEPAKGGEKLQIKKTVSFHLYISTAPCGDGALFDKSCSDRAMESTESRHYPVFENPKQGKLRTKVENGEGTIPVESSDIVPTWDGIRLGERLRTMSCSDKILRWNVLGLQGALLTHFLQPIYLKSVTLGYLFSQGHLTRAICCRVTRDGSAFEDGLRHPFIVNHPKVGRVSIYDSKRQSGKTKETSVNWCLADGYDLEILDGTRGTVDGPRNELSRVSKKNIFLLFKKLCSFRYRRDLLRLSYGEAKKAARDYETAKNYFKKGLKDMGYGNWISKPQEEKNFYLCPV
In words: co-IP; HEK 293T transfected with Flag-PACT or ADAR1 p150-V5; IP with anti-Flag or anti-V5 on protein G agarose, 2 mg protein, overnight 4°C; blot for endogenous ADAR1 or PACT; no nuclease.

These are yes or no findings as the source states them, for the method shown. Binding seen in cells or lysates may run through a third protein. Some entries that bind do so weakly or less than the wild type. For some assays here: Sequences can lack the tags named with a protein.

B1: Adenosine Deaminase Acting on RNA (ADAR)1 (protein, UniProt P55265 1-1226)
chain: MNPRQGYSLSGYYTHPFQGYEHRQLRYQQPGPGSSPSSFLLKQIEFLKGQLPEAPVIGKQTPSLPPSLPGLRPRFPVLLASSTRGRQVDIRGVPRGVHLRSQGLQRGFQHPSPRGRSLPQRGVDCLSSHFQELSIYQDQEQRILKFLEELGEGKATTAHDLSGKLGTPKKEINRVLYSLAKKGKLQKEAGTPPLWKIAVSTQAWNQHSGVVRPDGHSQGAPNSDPSLEPEDRNSTSVSEDLLEPFIAVSAQAWNQHSGVVRPDSHSQGSPNSDPGLEPEDSNSTSALEDPLEFLDMAEIKEKICDYLFNVSDSSALNLAKNIGLTKARDINAVLIDMERQGDVYRQGTTPPIWHLTDKKRERMQIKRNTNSVPETAPAAIPETKRNAEFLTCNIPTSNASNNMVTTEKVENGQEPVIKLENRQEARPEPARLKPPVHYNGPSKAGYVDFENGQWATDDIPDDLNSIRAAPGEFRAIMEMPSFYSHGLPRCSPYKKLTECQLKNPISGLLEYAQFASQTCEFNMIEQSGPPHEPRFKFQVVINGREFPPAEAGSKKVAKQDAAMKAMTILLEEAKAKDSGKSEESSHYSTEKESEKTAESQTPTPSATSFFSGKSPVTTLLECMHKLGNSCEFRLLSKEGPAHEPKFQYCVAVGAQTFPSVSAPSKKVAKQMAAEEAMKALHGEATNSMASDNQPEGMISESLDNLESMMPNKVRKIGELVRYLNTNPVGGLLEYARSHGFAAEFKLVDQSGPPHEPKFVYQAKVGGRWFPAVCAHSKKQGKQEAADAALRVLIGENEKAERMGFTEVTPVTGASLRRTMLLLSRSPEAQPKTLPLTGSTFHDQIAMLSHRCFNTLTNSFQPSLLGRKILAAIIMKKDSEDMGVVVSLGTGNRCVKGDSLSLKGETVNDCHAEIISRRGFIRFLYSELMKYNSQTAKDSIFEPAKGGEKLQIKKTVSFHLYISTAPCGDGALFDKSCSDRAMESTESRHYPVFENPKQGKLRTKVENGEGTIPVESSDIVPTWDGIRLGERLRTMSCSDKILRWNVLGLQGALLTHFLQPIYLKSVTLGYLFSQGHLTRAICCRVTRDGSAFEDGLRHPFIVNHPKVGRVSIYDSKRQSGKTKETSVNWCLADGYDLEILDGTRGTVDGPRNELSRVSKKNIFLLFKKLCSFRYRRDLLRLSYGEAKKAARDYETAKNYFKKGLKDMGYGNWISKPQEEKNFYLCPV
For B1, the binding result in test [1] is “binds”.

B2: endogenous ADAR1 (HEK 293T) (protein, UniProt P55265 1-1226)
chain: MNPRQGYSLSGYYTHPFQGYEHRQLRYQQPGPGSSPSSFLLKQIEFLKGQLPEAPVIGKQTPSLPPSLPGLRPRFPVLLASSTRGRQVDIRGVPRGVHLRSQGLQRGFQHPSPRGRSLPQRGVDCLSSHFQELSIYQDQEQRILKFLEELGEGKATTAHDLSGKLGTPKKEINRVLYSLAKKGKLQKEAGTPPLWKIAVSTQAWNQHSGVVRPDGHSQGAPNSDPSLEPEDRNSTSVSEDLLEPFIAVSAQAWNQHSGVVRPDSHSQGSPNSDPGLEPEDSNSTSALEDPLEFLDMAEIKEKICDYLFNVSDSSALNLAKNIGLTKARDINAVLIDMERQGDVYRQGTTPPIWHLTDKKRERMQIKRNTNSVPETAPAAIPETKRNAEFLTCNIPTSNASNNMVTTEKVENGQEPVIKLENRQEARPEPARLKPPVHYNGPSKAGYVDFENGQWATDDIPDDLNSIRAAPGEFRAIMEMPSFYSHGLPRCSPYKKLTECQLKNPISGLLEYAQFASQTCEFNMIEQSGPPHEPRFKFQVVINGREFPPAEAGSKKVAKQDAAMKAMTILLEEAKAKDSGKSEESSHYSTEKESEKTAESQTPTPSATSFFSGKSPVTTLLECMHKLGNSCEFRLLSKEGPAHEPKFQYCVAVGAQTFPSVSAPSKKVAKQMAAEEAMKALHGEATNSMASDNQPEGMISESLDNLESMMPNKVRKIGELVRYLNTNPVGGLLEYARSHGFAAEFKLVDQSGPPHEPKFVYQAKVGGRWFPAVCAHSKKQGKQEAADAALRVLIGENEKAERMGFTEVTPVTGASLRRTMLLLSRSPEAQPKTLPLTGSTFHDQIAMLSHRCFNTLTNSFQPSLLGRKILAAIIMKKDSEDMGVVVSLGTGNRCVKGDSLSLKGETVNDCHAEIISRRGFIRFLYSELMKYNSQTAKDSIFEPAKGGEKLQIKKTVSFHLYISTAPCGDGALFDKSCSDRAMESTESRHYPVFENPKQGKLRTKVENGEGTIPVESSDIVPTWDGIRLGERLRTMSCSDKILRWNVLGLQGALLTHFLQPIYLKSVTLGYLFSQGHLTRAICCRVTRDGSAFEDGLRHPFIVNHPKVGRVSIYDSKRQSGKTKETSVNWCLADGYDLEILDGTRGTVDGPRNELSRVSKKNIFLLFKKLCSFRYRRDLLRLSYGEAKKAARDYETAKNYFKKGLKDMGYGNWISKPQEEKNFYLCPV
As for B2, the binding entry in the test with Flag-PACT [2] and in the test with Flag-PACT [3] was “binds” in each case.

B3: PKR Activator (PACT) (protein, UniProt O75569 1-313)
chain: MSQSRHRAEAPPLEREDSGTFSLGKMITAKPGKTPIQVLHEYGMKTKNIPVYECERSDVQIHVPTFTFRVTVGDITCTGEGTSKKLAKHRAAEAAINILKANASICFAVPDPLMPDPSKQPKNQLNPIGSLQELAIHHGWRLPEYTLSQEGGPAHKREYTTICRLESFMETGKGASKKQAKRNAAEKFLAKFSNISPENHISLTNVVGHSLGCTWHSLRNSPGEKINLLKRSLLSIPNTDYIQLLSEIAKEQGFNITYLDIDELSANGQYQCLAELSTSPITVCHGSGISCGNAQSDAAHNALQYLKIIAERK
As for B3, the binding entry in test [4] is “binds”.

B4: endogenous PACT (HEK 293T) (protein, UniProt O75569 1-313)
chain: MSQSRHRAEAPPLEREDSGTFSLGKMITAKPGKTPIQVLHEYGMKTKNIPVYECERSDVQIHVPTFTFRVTVGDITCTGEGTSKKLAKHRAAEAAINILKANASICFAVPDPLMPDPSKQPKNQLNPIGSLQELAIHHGWRLPEYTLSQEGGPAHKREYTTICRLESFMETGKGASKKQAKRNAAEKFLAKFSNISPENHISLTNVVGHSLGCTWHSLRNSPGEKINLLKRSLLSIPNTDYIQLLSEIAKEQGFNITYLDIDELSANGQYQCLAELSTSPITVCHGSGISCGNAQSDAAHNALQYLKIIAERK
Take B4: in the test with ADAR1 p150-V5, the binding result is “binds”.
